{"sequences": {"note": "Amino acid sequences for entries named in this document (tags omitted).", "UniProt P25106": "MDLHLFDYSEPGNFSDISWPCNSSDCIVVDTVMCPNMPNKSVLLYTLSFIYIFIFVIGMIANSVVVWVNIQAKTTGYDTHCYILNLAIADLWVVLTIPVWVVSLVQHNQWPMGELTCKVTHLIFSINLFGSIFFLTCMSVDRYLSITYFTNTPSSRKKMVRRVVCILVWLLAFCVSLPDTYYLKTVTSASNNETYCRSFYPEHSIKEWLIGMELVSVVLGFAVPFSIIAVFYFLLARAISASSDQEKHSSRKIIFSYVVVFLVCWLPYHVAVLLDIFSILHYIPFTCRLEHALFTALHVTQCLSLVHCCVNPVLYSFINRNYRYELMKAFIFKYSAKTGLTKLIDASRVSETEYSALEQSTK"}, "source": "paper PMC10449177", "biological_target": "CXCR7 (human (endogenous in H1 and H9 human ESCs)) (UniProt P25106)", "assay": "co-IP; endogenous proteins in human ESC lysate (IP lysis buffer); 2 ug antibody (MIF antibody, or CXCR7 antibody for the reverse IP) with protein A/G beads overnight at 4°C; washed three times; Western blot; IgG as negative control", "note": "These are yes or no findings as the source states them, for the method shown. Binding seen in cells or lysates may run through a third protein. Some binding calls cover weakened binding; strength is not graded here."}
{"binder": "Macrophage migration inhibitory factor (protein, UniProt P14174 1-115) MPMFIVNTNVPRASVPDGFLSELTQQLAQATGKPPQYIAVHVVPDQLMAFGGSSEPCALCSLHSIGKIGGAQNRSYSKLLCGLLAERLRISPDRVYINYYDMNAANVGWNNSTFA", "values": [{"measurement": "binding", "value": "binds"}]}
